Taken from: PubChem BioAssay AID686937 (Drosophila RNAi Screening Center, 2013)
The screen tested about 23,000 reagents; this is an unselected part of those with a known target gene and a result. 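Reduced-secretion tags in replicate 1 do not always agree with the z-scores; no criterion for assigning the tags was given.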 Names joined by + are all predicted targets of the reagent. The record does not give: the amount of reagent.

- Aim: 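Knock-downs that reduce output of a secreted reporter enzyme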 (primary screen)
- Cells: Drosophila S2 cells expressing secreted horseradish peroxidase
- Reagents: long dsRNA against Drosophila genes
- Timing: about 5.5 days (5 days dsRNA, then 12 h reporter induction)
- Challenge: reporter expression induced after 5 days of dsRNA, read 12 h later; inducer not stated
- Read-out: 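Chemiluminescent measurement of peroxidase in the medium 12 h after reporter induction, following 5 days of dsRNA, given as a z-score per plate; higher means more secretion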
- Reading the numbers: z-score: higher = more reporter secreted into medium

no.	gene	PubChem SID	z-score, replicate 1	z-score, replicate 2	z-score, replicate 3	z-score, replicate 4	phenotype, replicate 1
1	lncRNA:roX2	SID104201764	0.31	0.79			
2	Nup93-2	SID104196013	0.21	0.41			
3	Rab4 + CG42239	SID104185459	-0.35	0.36			
4	Ugt49B1	SID104184253	0.05	-0.04			
5	CG13203	SID104186119	0.28	0.07			
6	scpr-B	SID104194992	0.32	0.43			
7	Vmat	SID104186753	0.27	0.29			
8	Vmat	SID104186754	0.21	0.39			
9	Vmat	SID104201754	-0.37	-0.32			
10	CG30395	SID104183688	0.36	0.2			
11	Bruce	SID104195807	0.57	0.66			
12	tsh	SID104183532	-0.01	0.12			
13	CG8191	SID104199883	0.33	0.6			
14	ATbp	SID104200698	0.62	0.53			
15	flap	SID104183710	0.06	0.06			
16	flap	SID104183879	0.19	0.05			
17	CG2816	SID104180331	0.02	0.35			
18	Hn	SID104190976	0.37	0.31			
19	Fntb	SID104195036	0.36	0.27			
20	CG8908	SID104187089	0.24	0.39			
21	Cyp28a5	SID104183089	0.28	0.33			
22	BBS5	SID104191960	0.37	0.2			
23	CG1233	SID104188061	0.15	-0.02			
24	mub	SID104191688	0.23	0.44			
25	Acat2	SID104188422	0.4	0.43			
26	CG31872	SID104182360	-0.08	0.19			
27	CG31872	SID104182364	0.27	0.43			
28	Octbeta2R	SID104192709	-0.23	0.3			
29	Octbeta2R	SID104195142	-0.33	0.13			
30	Octbeta2R	SID104195957	0.07	0.08			
31	CG17059	SID104186446	-0.03	0.03			
32	CG14151	SID104189945	0.35	-0.08			
33	Ada2a + Polr2D	SID104195998	0.34	-0.33			
34	Ada2a + Polr2D	SID104201303	-3.07	-1.07			reduced secretion
35	Hsp110	SID104190978	-0.09	0.76			
36	CG17359	SID104190057	0.39	0.06			
37	beta4GalT7	SID104194177	0.1	0.21			
38	RPA3	SID104199450	0.01	0.01			
39	Chchd2	SID104199723	-0.13	0.52	0.07	0.52	
40	CG3348	SID104195272	0.28	0.08			
41	pes	SID104182825	0.07	0.07			
42	Pka-C3	SID104189194	0.46	0.28			
43	Pka-C3	SID104191046	0.18	-0.39			
44	rdx	SID104194318	-1.72	-2.96			reduced secretion
45	rdx	SID104196372	0.35	0.14			
46	His2Av	SID104196494	0.05	0.02			
47	CG12825	SID104185966	0.39	0.36	0.7	0.22	
48	CG6304	SID104182740	0.16	0.15			
49	Or98P	SID104202305	0.08	-0.1			
50	CG8159	SID104196184	0.17	0.1			
51	Clk	SID104190909	0.15	0.23			
52	Pal1 + Pdrg1	SID104186379	0.17	-0.13			
53	Cerk	SID104192077	0.22	0.34			
54	CG8838	SID104180504	0.28	0.29			
55	RabGGTa	SID104191981	0.26	0.17			
56	CG31870	SID104201362	0.23	0.28			
57	cv-2	SID104183653	-0.32	0.06			
58	cv-2	SID104184053	-0.02	0.07			
59	RhoGAP92B	SID104194299	0.33	0.49			
60	RhoGAP92B	SID104195429	0.33	0.27			
61	CG18223	SID104190098	-4.66	0.21			
62	CG5946	SID104190352	0.17	0.4			
63	SmB	SID104183229	-6.18	-3.6			reduced secretion
64	CG30116	SID104185727	0.21	0.03			
65	CG30116	SID104186477	0.35	0.37			
66	CG5107	SID104195508	0.53	0.24			
67	HDAC3	SID104192144	0.32	-0.14			
68	Ilp5	SID104188790	0.08	-0.32			
69	inaC	SID104187424	0.4	0.37			
70	NetB	SID104200054	0.28	0.32			
71	lncRNA:CR32027	SID104189363	0.43	0.35			
72	CG14418	SID104198429	0.01	-0.26			
73	Cpr50Cb	SID104186767	0.33	0.3			
74	Prosbeta6	SID104191048	-4.61	-5.01			reduced secretion
75	CG42272	SID104188558	-0.16	0.36			
76	CG42272	SID104201954	0.56	0.95			
77	CG10139	SID104185764	0.48	0.1			
78	CG14135	SID104189932	0.45	0.35			
79	narya	SID104199231	0.29	0.18			
80	CR18217	SID104201230	0.91	0.01			
81	CG7702	SID104196085	0.26	0.34			
82	CG30373	SID104184873	-0.06				

9 entries already listed, sorted by “z-score, replicate 2”, high to low.
gene	PubChem SID	z-score, replicate 1	z-score, replicate 2	z-score, replicate 3	z-score, replicate 4	phenotype, replicate 1
RhoGAP92B	SID104194299	0.33	0.49			
CG5946	SID104190352	0.17	0.4			
CG30116	SID104186477	0.35	0.37			
RhoGAP92B	SID104195429	0.33	0.27			
CG18223	SID104190098	-4.66	0.21			
cv-2	SID104184053	-0.02	0.07			
cv-2	SID104183653	-0.32	0.06			
CG30116	SID104185727	0.21	0.03			
SmB	SID104183229	-6.18	-3.6			reduced secretion
